Results taken from the supplement of paper PMC8728848.
The list shows a part of the results.

What was measured:
Assay in all cases: glycan array binding signal (z-score within array); higher = stronger binding
Conditions in all cases: glycan notation: IUPAC condensed, linker removed
[1] = target: Fuc(a1-2)[GalNAc(b1-3)]Gal
In short: (§1)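 The binding signal is a Z-score computed within each array and averaged over linkers. Arrays of the same protein sequence at different concentrations or buffers were also averaged together. Data originate from 3228 arrays in the Consortium for Functional Glycomics database, kept only where the protein sequence was available.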

[2] = target: Fuc(a1-3)GlcNAc
In short: as §1

[3] = target: Fuc(a1-3)[Gal(b1-4)]Glc6S
In short: as §1

[4] = target: Fuc(a1-3)[Gal(b1-4)]GlcNAc
In short: as §1

[5] = target: Fuc(a1-3)[Gal(b1-4)]GlcNAc(b1-2)Man
In short: as §1

[6] = target: Fuc(a1-3)[Gal(b1-4)]GlcNAc(b1-2)Man(a1-3)[Fuc(a1-3)[Gal(b1-4)]GlcNAc(b1-2)Man(a1-6)]Man(b1-4)GlcNAc(b1-4)GlcNAc
In short: as §1

[7] = target: Fuc(a1-3)[Gal(b1-4)]GlcNAc(b1-2)Man(a1-3)[Fuc(a1-3)[Gal(b1-4)]GlcNAc(b1-2)Man(a1-6)]Man(b1-4)GlcNAc(b1-4)[Fuc(a1-6)]GlcNAc
In short: as §1

[8] = target: Fuc(a1-3)[Gal(b1-4)]GlcNAc(b1-3)Gal(b1-3)[Fuc(a1-4)]GlcNAc
In short: as §1

[9] = target: Fuc(a1-3)[Gal(b1-4)]GlcNAc(b1-3)Gal(b1-4)[Fuc(a1-3)]GlcNAc
In short: as §1

[10] = target: Fuc(a1-3)[Gal(b1-4)]GlcNAc(b1-3)Gal(b1-4)[Fuc(a1-3)]GlcNAc(b1-3)Gal(b1-4)[Fuc(a1-3)]GlcNAc
In short: as §1

[11] = target: Fuc(a1-3)[Gal(b1-4)]GlcNAc(b1-3)GalNAc
In short: as §1

[12] = target: Fuc(a1-3)[Gal(b1-4)]GlcNAc(b1-6)GalNAc
In short: as §1

[13] = target: Fuc(a1-3)[Gal(b1-4)]GlcNAc(b1-6)[Gal(b1-3)GlcNAc(b1-3)]Gal(b1-4)Glc
In short: as §1

[14] = target: Fuc(a1-3)[Gal(b1-4)]GlcNAc6S
In short: as §1

[15] = target: Fuc(a1-3)[Gal3S(b1-4)]Glc
In short: as §1

[16] = target: Fuc(a1-3)[Gal3S(b1-4)]GlcNAc
In short: as §1

[17] = target: Fuc(a1-3)[Gal3S(b1-4)]GlcNAc6S
In short: as §1

[18] = target: Fuc(a1-3)[GalNAc(b1-4)]GlcNAc
In short: as §1

[19] = target: Fuc(a1-3)[GalNAc(b1-4)]GlcNAc6S
In short: as §1

[20] = target: Fuc(a1-4)GlcNAc
In short: as §1

[21] = target: Fuc(b1-3)GlcNAc
In short: as §1

[22] = target: Gal(a1-2)Gal
In short: as §1

[23] = target: Gal(a1-3)Gal
In short: as §1

[24] = target: Gal(a1-3)Gal(b1-3)GlcNAc
In short: as §1

[25] = target: Gal(a1-3)Gal(b1-3)GlcNAc(b1-2)Man
In short: as §1

[26] = target: Gal(a1-3)Gal(b1-3)GlcNAc(b1-2)Man(a1-3)[Gal(a1-3)Gal(b1-3)GlcNAc(b1-2)Man(a1-6)]Man(b1-4)GlcNAc(b1-4)GlcNAc
In short: as §1

[27] = target: Gal(a1-3)Gal(b1-3)GlcNAc(b1-3)GalNAc
In short: as §1

[28] = target: Gal(a1-3)Gal(b1-3)GlcNAc(b1-6)GalNAc
In short: as §1

[29] = target: Gal(a1-3)Gal(b1-3)[Fuc(a1-4)]GlcNAc(b1-2)Man(a1-3)[Gal(a1-3)Gal(b1-3)[Fuc(a1-4)]GlcNAc(b1-2)Man(a1-6)]Man(b1-4)GlcNAc(b1-4)GlcNAc
In short: as §1

[30] = target: Gal(a1-3)Gal(b1-4)Glc
In short: as §1

B1: CcfD (Bacteroides fragilis), Q5L9G4 (protein)
chain: MKKQNSIYTLLIALLCFVSSCDYLGVSDQLAGGLQNTEQVFDNVSYTKRWYANVFAGIPDYSGINSVNVGAFKNPWTGMCDELVVGYGNSSKYNNSDRNAANMGFHRYGDCYKYIRQANIFLQKAHPIMTTGTQGDQLLEDELTQMKANVRFMRAFYHYLLFEQYGPIILVKDKIYNATEDQDVPRNTVDEVIEYIDSELTAVASELTQEPIFEDKDYRAWPTKGVALAVRAKLWLYAASPLLNGGYREALSVTNPDGTRLFPDYDAGKWEKALAACKDFIDYAEAGRYELYKEYKDDNGAVIDPDKSVYNLFQKYTHEIIWATANNDWGGMNGDAFDRRIAPRCEKNGLGSTGVTQELVDAFYMKDGFPVSATAYLPQSTLYQEEGYGTYKDQNDNFSKKYTNVTVSNRYLNREPRFYNTVFFNGRQWPVSCNQVLFYNGGNSGVQEGQATLTGYMLFKRFNRSVSLTNPGVASQFRPSIIFRLADFYLMYAEAANEVNPNDARVLKYLNLVRERAGLPDIETLNPAIRGNQELQRAAIQRERQIELATEGQRYFDVRRWMIADKNGEGRQNGYVHGMNVRGESNDKEDFNRIVEASQIVFNRKMYLYPMPDSEMRKTKNLVQNPGW
glycan array binding signal (z-score) [1]: 1.45 | glycan array binding signal (z-score) [2]: 0.804 | glycan array binding signal (z-score) [3]: -0.292 | glycan array binding signal (z-score) [4]: -0.499 | glycan array binding signal (z-score) [5]: -0.253 | glycan array binding signal (z-score) [6]: -1 | glycan array binding signal (z-score) [7]: -0.259 | glycan array binding signal (z-score) [8]: -0.916 | glycan array binding signal (z-score) [9]: 0.667 | glycan array binding signal (z-score) [10]: -0.765 | glycan array binding signal (z-score) [11]: -0.851 | glycan array binding signal (z-score) [12]: 0.325 | glycan array binding signal (z-score) [13]: -0.207 | glycan array binding signal (z-score) [14]: 0.312 | glycan array binding signal (z-score) [15]: 0.016 | glycan array binding signal (z-score) [16]: -0.903 | glycan array binding signal (z-score) [17]: -0.811 | glycan array binding signal (z-score) [18]: 1.65 | glycan array binding signal (z-score) [19]: 0.496 | glycan array binding signal (z-score) [20]: -0.03 | glycan array binding signal (z-score) [21]: 0.181 | glycan array binding signal (z-score) [22]: 0.601 | glycan array binding signal (z-score) [23]: 0.358 | glycan array binding signal (z-score) [24]: -0.988 | glycan array binding signal (z-score) [25]: -1.47 | glycan array binding signal (z-score) [26]: 0.804 | glycan array binding signal (z-score) [27]: -0.299 | glycan array binding signal (z-score) [28]: -0.818 | glycan array binding signal (z-score) [29]: -0.785 | glycan array binding signal (z-score) [30]: -0.141
